Assay results published in PMC3524939.
No constants are given. Whether binding was seen depends on the method and setting. Binding seen in cells or lysates may run through a third protein. Some binding calls cover weakened binding; strength is not graded here.

By UniProt entry, the sequences of proteins in these tests, tags left out.
UniProt Q61188: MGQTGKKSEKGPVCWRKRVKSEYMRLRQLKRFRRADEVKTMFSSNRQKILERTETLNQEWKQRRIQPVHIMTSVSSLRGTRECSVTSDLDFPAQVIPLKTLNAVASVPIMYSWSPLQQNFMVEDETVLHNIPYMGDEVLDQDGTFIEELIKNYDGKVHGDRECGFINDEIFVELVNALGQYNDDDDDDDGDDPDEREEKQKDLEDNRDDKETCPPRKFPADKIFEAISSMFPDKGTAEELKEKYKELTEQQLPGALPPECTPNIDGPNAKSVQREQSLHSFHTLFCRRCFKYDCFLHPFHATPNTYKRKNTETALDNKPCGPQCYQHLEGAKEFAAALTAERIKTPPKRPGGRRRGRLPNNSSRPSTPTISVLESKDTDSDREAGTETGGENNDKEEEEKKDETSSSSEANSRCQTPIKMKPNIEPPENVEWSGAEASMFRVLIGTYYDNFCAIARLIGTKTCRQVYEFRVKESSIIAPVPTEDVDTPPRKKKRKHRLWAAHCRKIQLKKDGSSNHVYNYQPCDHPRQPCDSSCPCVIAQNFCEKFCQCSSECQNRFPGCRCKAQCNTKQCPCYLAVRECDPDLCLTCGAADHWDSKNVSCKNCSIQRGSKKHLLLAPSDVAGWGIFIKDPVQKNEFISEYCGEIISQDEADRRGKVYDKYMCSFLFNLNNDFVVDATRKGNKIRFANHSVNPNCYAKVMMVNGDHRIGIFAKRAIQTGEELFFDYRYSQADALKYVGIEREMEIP
UniProt Q9CQJ4: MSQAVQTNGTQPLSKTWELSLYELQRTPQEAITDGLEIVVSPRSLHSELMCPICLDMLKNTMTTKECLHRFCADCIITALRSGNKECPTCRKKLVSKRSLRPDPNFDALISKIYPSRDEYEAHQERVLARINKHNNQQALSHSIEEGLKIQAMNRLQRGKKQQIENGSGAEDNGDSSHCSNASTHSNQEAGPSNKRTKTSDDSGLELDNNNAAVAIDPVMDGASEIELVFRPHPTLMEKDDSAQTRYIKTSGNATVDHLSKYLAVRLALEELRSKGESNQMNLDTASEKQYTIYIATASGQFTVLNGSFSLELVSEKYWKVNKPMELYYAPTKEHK

Molecular target: T1, endogenous KDM2B (mouse (endogenous in ESCs)) (UniProt Q6P1G2)
T1 sequence: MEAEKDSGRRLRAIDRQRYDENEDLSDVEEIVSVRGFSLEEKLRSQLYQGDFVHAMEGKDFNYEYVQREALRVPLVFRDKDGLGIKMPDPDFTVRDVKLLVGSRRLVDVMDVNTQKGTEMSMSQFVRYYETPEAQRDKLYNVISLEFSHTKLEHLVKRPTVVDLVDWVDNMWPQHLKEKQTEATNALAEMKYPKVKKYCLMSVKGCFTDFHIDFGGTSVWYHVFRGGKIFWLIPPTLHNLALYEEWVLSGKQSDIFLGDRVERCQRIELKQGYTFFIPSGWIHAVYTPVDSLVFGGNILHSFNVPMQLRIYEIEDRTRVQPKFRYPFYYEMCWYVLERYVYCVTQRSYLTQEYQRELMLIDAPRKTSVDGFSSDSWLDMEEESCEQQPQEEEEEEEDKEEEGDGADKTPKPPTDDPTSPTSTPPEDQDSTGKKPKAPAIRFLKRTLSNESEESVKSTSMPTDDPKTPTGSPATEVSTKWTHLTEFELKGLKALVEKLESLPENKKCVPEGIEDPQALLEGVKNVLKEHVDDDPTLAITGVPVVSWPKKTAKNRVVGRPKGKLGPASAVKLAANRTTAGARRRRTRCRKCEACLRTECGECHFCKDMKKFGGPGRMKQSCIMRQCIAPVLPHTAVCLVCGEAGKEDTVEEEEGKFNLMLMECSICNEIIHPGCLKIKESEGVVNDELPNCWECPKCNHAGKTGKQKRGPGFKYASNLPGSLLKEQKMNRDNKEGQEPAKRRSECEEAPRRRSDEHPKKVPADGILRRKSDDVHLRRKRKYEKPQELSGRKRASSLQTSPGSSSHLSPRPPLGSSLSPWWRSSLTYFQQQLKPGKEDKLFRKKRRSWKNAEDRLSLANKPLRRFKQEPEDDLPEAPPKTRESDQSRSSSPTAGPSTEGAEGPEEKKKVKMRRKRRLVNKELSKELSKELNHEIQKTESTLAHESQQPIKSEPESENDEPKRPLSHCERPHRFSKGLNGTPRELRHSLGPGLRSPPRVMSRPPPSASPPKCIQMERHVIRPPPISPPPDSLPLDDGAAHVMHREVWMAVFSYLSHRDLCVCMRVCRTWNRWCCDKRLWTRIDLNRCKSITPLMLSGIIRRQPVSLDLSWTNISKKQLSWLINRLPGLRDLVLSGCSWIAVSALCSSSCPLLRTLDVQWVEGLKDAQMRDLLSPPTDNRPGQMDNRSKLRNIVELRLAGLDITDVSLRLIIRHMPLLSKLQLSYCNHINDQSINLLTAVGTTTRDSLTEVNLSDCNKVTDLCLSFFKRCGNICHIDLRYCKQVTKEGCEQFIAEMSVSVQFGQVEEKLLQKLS
Assay: co-IP; endogenous KDM2B immunoprecipitated from 0.5 mg mouse ESC nuclear extract in BC150, overnight at 4°C, protein A beads, washed with BC300; western blot; Flag immunoprecipitation as negative control

| Substance | binding |
| --- | --- |
| EZH2 (from UniProt Q61188 1-746) | no binding |
| RING1B (from UniProt Q9CQJ4 1-336) | binds |
